Source: US5248691A, “Furanoindolines” (Eli Lilly and Company, priority 1992, dated 1993)
Some of these results come from one statement about several compounds together.

System: T222 cell line
Experiment: Flow cytometric analysis of cell cycle in T222 cell line
Format: cell-based, human
Settings: for cell cycle effect, high concentration: high concentration (5.0-10.0 ng/mL); for cell cycle effect, low concentration: low concentration (0.1-0.5 ng/mL)

Row | Structure (SMILES) | cell cycle effect, high concentration | cell cycle effect, low concentration
1 | Cc1coc2c(O)cc3c(c12)C(CCl)CN3C(=O)c1cc2cc(NC(=O)c3cc4ccccc4[nH]3)ccc2[nH]1 (single isomer, unassigned; (+)) [Compound 4] | arrested the cells in the Go /G1 phase of the cell cycle | specificity for the G2 /M phase of the cell cycle
2 | Cc1coc2c(O)cc3c(c12)C(CCl)CN3C(=O)c1cc2cc(NC(=O)c3cc4ccccc4o3)ccc2[nH]1 (single isomer, unassigned; (+)) [Compound 5] | arrested the cells in the Go /G1 phase of the cell cycle | specificity for the G2 /M phase of the cell cycle
3 | Cc1coc2c(O)cc3c(c12)C(CCl)CN3C(=O)c1cc2cc(NC(=O)c3cc4ccccc4s3)ccc2[nH]1 (single isomer, unassigned; (+)) [Compound 6] | arrested the cells in the Go /G1 phase of the cell cycle | specificity for the G2 /M phase of the cell cycle
